# Library screen at single concentrations

Source: ChEMBL document CHEMBL3988442, “University of Dundee, Small-Polar-MMV Screening Library” (2021).

Results are given as percent effect.
The record does not define 0% and 100%; most values in the screen are far below 50% and negative numbers occur (in some assays of this library far below -100).
The compounds are a random part of those screened.

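Whole-parasite assay of Trypanosoma brucei over 72 hours; the read-out is not stated. Concentration: 30 µM. Direction is inferred from retests: higher values go with stronger inhibition. Values scatter widely below zero; nearly all retest evidence comes from the higher of the two concentrations used. Of about 64,000 compounds tested this way, about 940 (1.5%) reached 50% or more in at least one test.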

compound	percent effect
c1cnc(N2CC3(CCN(C4CCOC4)CC3)c3ccccc32)nc1 (configuration not stated)	-38.47%
Nc1ncc(-c2ccc(NC(=O)[C@@H]3CCCCN3)cc2)cn1	8.453%
CNC(=O)C1CCN(C(=O)CCn2cccn2)CC1	-57.17%
CCOc1cc(F)ccc1NC(=O)N(C(C)CS(C)(=O)=O)C1CC1 (configuration not stated)	13.82%
O=C(c1cccnc1)N1CCN(CC2CC2)c2ncccc2C1	-32.59%
CC1(C(=O)Nc2ccc(F)c(-n3cccc3)c2)CCOCC1	-6.16%
Cc1nc[nH]c1C(=O)NCc1cccnc1N(C)C1CCCCC1	-5.453%
O=C(O)[C@@H]1CN(C(=O)c2ccc3nccnc3c2)C[C@H]1c1ccncc1	-5.007%
[H][C@]12CCN(C(=O)C3CCC3)CC[C@@]1([H])S(=O)(=O)N(Cc1cccnc1)C2	-94.37%
NC(=O)CC1CCN(C(=O)c2csc(-c3ccccc3F)n2)CC1	-17.56%
COc1ncccc1CN1CCc2[nH]cnc2C1CCSC (configuration not stated)	-9.749%
Cn1ncc2c(NC3CN4CCC3CC4)nc(-c3ccncc3)nc21 (configuration not stated)	99.69%
O=C1CC(Cc2ccc(NC(=O)c3cccc(F)c3)cc2)C(=O)N1 (configuration not stated)	-65.35%
O[C@@H]1CN(Cc2cc(Cl)cc3cccnc23)C[C@@H]1O	0.3324%
[H][C@@]12CN(C(=O)N3CCOCC3)C[C@]1([H])OCCN2C(=O)c1ccco1	-74.67%
CC(C)C(=O)N1CCC(c2nc3ccccn3c2NC(C)(C)C)CC1	4.231%
O=C(CCn1ccnc1)N1CC[C@@H](c2ccc3ccccc3c2)[C@H](O)C1	-182%
COc1cc(C(C#N)NC(=O)CC2=CCCCC2)cc(OC)c1OC (configuration not stated)	-120.5%
Nc1cc2c(nn1)CCN(C(=O)c1csc(-c3cccs3)n1)C2	0.7115%
CSCCCNC(=O)C1CCC(=O)N(C2CCCC2)C1 (configuration not stated)	10.36%
CC(=O)Nc1ccc(Oc2ccc(CN3CCCC3)cc2F)cc1	-17.01%
Cc1noc(C2CCN(Cn3cc(Cl)cn3)CC2)n1	-34.96%
Cc1cccc(C(=O)N2CCc3c(CN(C)C)nn(C)c3C2)n1	-4.832%
C=C(C)CN(CC)C(=O)c1cc(F)ccc1N1CCN(C)CC1	-55.01%
CCOC(C)C(=O)Nc1ccc2c(ccn2CC)c1 (configuration not stated)	8.032%
O=c1[nH]c(-c2ccc(F)cc2)nc2c1CCNC2	0.3325%
CNC(=O)c1sc2ccccc2c1C1CCN(c2cc(C)nc(C)n2)C1 (configuration not stated)	-15.87%
CC1CCN(C(=O)C(C)N2CCN(c3nccs3)CC2)CC1 (configuration not stated)	4.55%
COCC(=O)N1CCOCC2(CCN(Cc3cccs3)C2)C1.O=C(O)C(F)(F)F (configuration not stated)	-9.68%
[H][C@@]12CCN(C(=O)c3ccc(C)o3)[C@]1([H])CCC(=O)N2CC1CC1	-23.08%
O=C(O)CC(CC(=O)NCc1ccsc1)c1cccs1 (configuration not stated)	14.67%
[H][C@@]12CCN(Cc3sccc3C)[C@]1([H])CC[C@@H](C(=O)N1CCCO1)O2	9.205%
CCn1cc(NC(=O)c2c(C)nn(C)c2C)c(C(N)=O)n1	53.08%
CC(=O)c1cn(CC(=O)N2CCC3(CC2)OCCO3)c2ccccc12	-32.76%
Cc1ccc2c(c1)c(C)cc(=O)n2CCCN	-11.79%
COc1cc(C(=O)Nc2c(C)noc2C)ccc1C	5.312%
CC(C)n1nccc1NC(=O)CN1CCc2sccc2C1	-20.6%
CC(O)(CNC(=O)c1cccnc1-n1cccn1)c1cccs1 (configuration not stated)	-16.02%
O=C(CCc1ccsc1)NS(=O)(=O)Cc1ccon1	6.41%
Cc1csc(CNC(=O)NCC(O)c2cccc(Cl)c2)n1 (configuration not stated)	6.184%
CCCN(CC(=O)N1CCNCC1)C(=O)c1cccc(Cl)c1.O=C(O)C(F)(F)F	-6.349%
NC(=O)Nc1cccc(CNC(=O)CCCc2ccccc2)c1	-15.75%
[H][C@@]12C[C@H](C)O[C@]1([H])CCN(C(=O)c1ccncn1)C2	-3.18%
Cc1cc(CN2CCN(C(=O)c3sccc3C3CC3)CC2)on1	-5.523%
O=C(NCCn1ccnc1)c1ccn(-c2ccccc2F)n1	-33.42%
CC(Cn1cccn1)NC(=O)NCc1ccc(OC2CCCC2)nc1 (configuration not stated)	2.594%
COc1cc(N[C@@H](Cc2ccccc2)C(N)=O)ncn1	-19.18%
Cc1nc(Nc2nnc(C)s2)cc(C2CCCN2S(C)(=O)=O)n1 (configuration not stated)	0.3927%
O=C(O)C(F)(F)F.O=C(O)C(F)(F)F.[H][C@@]12CN(Cc3ccccc3)C[C@]1([H])C(=O)N(CCN1CCCC1)C2	0.9713%
CNC(=O)c1sccc1S(=O)(=O)Nc1ccc(C)cc1	-25.09%
COc1c(F)cc(-c2cccc3c2OC(CN)C3)cc1F (configuration not stated)	-21.68%
COc1ccc2c(C)c(C(=O)NCCCc3csc(N)n3)oc2c1	-25.98%

The last 4 entries again:

- O=C(O)C(F)(F)F.O=C(O)C(F)(F)F.[H][C@@]12CN(Cc3ccccc3)C[C@]1([H])C(=O)N(CCN1CCCC1)C2 | 0.9713%
- CNC(=O)c1sccc1S(=O)(=O)Nc1ccc(C)cc1 | -25.09%
- COc1c(F)cc(-c2cccc3c2OC(CN)C3)cc1F (configuration not stated) | -21.68%
- COc1ccc2c(C)c(C(=O)NCCCc3csc(N)n3)oc2c1 | -25.98%